Primary screen of a compound library

By UniProt entry, the sequences of proteins in these tests, tags left out.
UniProt P9WPC5, whole entry: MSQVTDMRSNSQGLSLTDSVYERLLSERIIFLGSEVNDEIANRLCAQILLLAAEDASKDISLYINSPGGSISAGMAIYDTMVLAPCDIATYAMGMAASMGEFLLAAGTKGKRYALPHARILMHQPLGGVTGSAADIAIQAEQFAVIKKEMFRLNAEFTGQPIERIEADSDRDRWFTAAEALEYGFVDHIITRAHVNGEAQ
UniProt P9WPC3, whole entry partner: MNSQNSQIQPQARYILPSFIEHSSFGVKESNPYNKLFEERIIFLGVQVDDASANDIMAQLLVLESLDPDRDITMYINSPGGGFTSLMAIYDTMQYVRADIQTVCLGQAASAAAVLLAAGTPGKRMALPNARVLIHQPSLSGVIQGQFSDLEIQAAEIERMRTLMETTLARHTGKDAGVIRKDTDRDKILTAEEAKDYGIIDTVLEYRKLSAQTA

From ChEMBL document CHEMBL3988442, “University of Dundee, Small-Polar-MMV Screening Library” (2021).

A: 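Assay of Toxoplasma gondii numbers, read through their beta-galactosidase reporter with a colour substrate. Tested at 10 µM. Higher reads as fewer parasites (inferred from which compounds were picked for retests). About 67,000 compounds were tested under these conditions; 0.38% (about 260) showed 50% or more at least once.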
B: 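Protease assay of ClpP1P2, read by the AMC dye that it sets free. Target: ClpP1P2, Mycobacterium tuberculosis (UniProt P9WPC5 and UniProt P9WPC3). Tested at 50 µM. Direction is inferred from only a few compounds that gave an IC50; most scored high, so higher reads as stronger inhibition. Most other retested compounds had strongly negative values. Size under these conditions: about 69,000 compounds, about 10 of them at 50% or above in at least one test.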

Results are given as percent effect.
The record does not define 0% and 100%; most values in the screen are far below 50% and negative numbers occur (in some assays of this library far below -100).
The compounds are a random part of those screened.

- O=C(Cc1csc(N2CCNC2=O)n1)NC(c1ccccc1)C1CC1 (stereo not drawn) | A: -6.585%; B: 3.468%
- O=C(c1n[nH]c2c1CCN(Cc1nccs1)C2)N1CCOCC1 | A: -7.836%; B: 0.7538%
- CN(CCCOc1ccccc1Cl)C(=O)CN1C[C@@H]2CC[C@H](CC1=O)N2 | B: -9.912%
- [H][C@@]12CNC[C@]1(C(=O)OC)CN(Cc1nc(C)c[nH]1)C2 | A: 0.9929%
- CC(C)N1CCc2[nH]nc(C(=O)N3CCCC3C)c2C1 (stereo not drawn) | A: -20.6%; B: -4.896%
- CS(=O)(=O)NCc1cnc2n1CCN(Cc1ccsc1)CC2.O=C(O)C(F)(F)F | A: 0.2013%
- Cc1ccc(NC2CCN(C(=O)Cn3nc(C)cc3C)CC2)nn1 | A: -1.976%; B: 3.956%
- COc1ccc(-c2cc(C(=O)N3N=C(C)CC3(O)C(F)(F)F)[nH]n2)cc1 (stereo not drawn) | A: 16.93%; B: -17.93%
- CC(=O)Nc1nc(C(=O)NCCOc2ccccc2F)cs1 | A: 0.6844%; B: -5.369%
- COc1nccnc1N1CCN(Cc2ccc(F)cc2)C(=O)C1 | A: 3.556%; B: -2.153%
- Cc1ccccc1C(=O)N1CC2(COC(C)(C)OC2)C1 | A: -37.32%; B: -6.54%
- CCC(=O)Nc1ccc2c(ccn2CC(=O)N(CC)CC)c1 | A: -7.679%; B: -21.76%
- O=c1nc(SCc2cccnc2)c2c(n1CCO)CCC2 | A: 2.299%; B: 3.722%
- O=C(c1ccncc1)N1CCC2(COc3ncccc3S(=O)(=O)N2)C1 (stereo not drawn) | A: 3.156%; B: -5.19%
- O=C1CCNc2ccccc2CN1Cc1ccco1 | A: -16.65%; B: 7.754%
- CN(C)C(=O)N1Cc2ccccc2C2(CCNCC2)C1 | B: -10.81%
- Cc1cccc(CN2CCCn3c(nnc3CN3CCCC3=O)C2)n1.O=C(O)C(F)(F)F | A: 2.404%
- CC(C)S(=O)(=O)NCc1cccnc1Oc1ccc(F)cc1F | A: 4.784%; B: 1.664%
- CC(C)Oc1ncc(C(=O)N2CCC(NC(=O)C3CC3)CC2)cc1Cl | A: 24.16%; B: -1.135%
- Cc1noc(C)c1CN1CCOCC12CCN(c1cnccn1)CC2 | B: 12.53%
- CCCn1nccc1-c1nccnc1CC1CCN(C(C)=O)CC1 | A: -7.242%; B: -16.57%
- O=C(NC1CC1)c1cc(NC(=O)N2CCCC(O)C2)ccc1Cl (stereo not drawn) | A: 3.893%; B: -6.03%
- Cc1ccc(-c2cnc(CCC(=O)NCCN3CCOCC3)o2)cc1C | A: -3.122%; B: 6.253%
- Cc1nc(COC[C@@]23CCC[C@@H]2CN(Cc2cnn(C)c2)C3)cs1 | B: 2.953%
- CN(C)S(=O)(=O)NCc1cccnc1Oc1ccccc1F | A: -0.8646%; B: -5.973%
- Cc1ncnc2c1CCN(c1ccccn1)CC2 | B: -0.477%
- CC(=O)Nc1nc(CN2CCCC2Cn2cc(C)cn2)cs1 (stereo not drawn) | A: -1.122%; B: 20.53%
- OC(CN1CCC(CNCc2ccccn2)CC1)c1ccccc1 (stereo not drawn) | A: 8.735%; B: -21.51%
- CN(C)C(=O)COCC1CN(S(C)(=O)=O)Cc2ncn(C)c21 (stereo not drawn) | B: 0.4156%
- CS(=O)(=O)N1C[C@@H]2OCC(=O)N(CC3CCC3)[C@@H]2C1 | B: 2.257%
- CCOC1CCN(C(=O)Nc2ccc(=O)n(C)c2)CC1 | A: -20.97%; B: -25.09%
- OC1(CN2CCCC2)CCCN(Cc2cnc(-c3ccccc3)nc2)C1 (stereo not drawn) | A: 7.606%; B: 8.176%
- CCn1ccnc1C1CCN(C(=O)C(O)c2ccc(OC)cc2)CC1 (stereo not drawn) | A: 20.08%; B: -15.15%
- CCc1ncc2c(n1)CN(c1nccc(C3CCCC3)n1)C2 | A: -11.45%; B: -2.834%
- CCCNC(=O)C1CCN(Cc2csc(C(C)(C)C)n2)CC1 | B: -7.389%
- COc1ccc(Cn2c(Cc3c(C)n[nH]c3C)n[nH]c2=O)cc1 | A: -6.134%; B: 13.19%

Repeated from the top, 4 entries:

O=C(Cc1csc(N2CCNC2=O)n1)NC(c1ccccc1)C1CC1 (stereo not drawn) gave A: -6.585%; B: 3.468%.
O=C(c1n[nH]c2c1CCN(Cc1nccs1)C2)N1CCOCC1 gave A: -7.836%; B: 0.7538%.
CN(CCCOc1ccccc1Cl)C(=O)CN1C[C@@H]2CC[C@H](CC1=O)N2 gave B: -9.912%.
[H][C@@]12CNC[C@]1(C(=O)OC)CN(Cc1nc(C)c[nH]1)C2 gave A: 0.9929%.